# Laboratory results from PubChem BioAssay AID662 (National Center for Advancing Translational Sciences (NCATS), 2007).
# Some of the results follow. Shown are side measurements of this screen, not its main read-out; they come without a call. Most of these compounds were active or inconclusive in the main read-out, so they are no random draw. The note in brackets gives the kind of curve behind each potency; many fits are weak.
# Test: Cell signaling CRE-BLA (Fsk stim)
# Conditions: CHO CRE-bla reporter (cAMP response element driving beta-lactamase), forskolin EC10, beta-lactamase ratio; measured here: 460 nm blue channel
# How it was run: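 qHTS titration format; CRE-bla CHO reporter; stimulus EC10 NKH 477, a water-soluble forskolin. Read: CCF4 460/530 nm ratio. Potency expressed as AC50 for activators or inhibitors.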
row,SMILES,AC50
1,Fc1ccc(-c2nnc(CN3CCC(c4nc5ccccc5s4)CC3)o2)cc1,"5.01 µM [rising, single point]"
2,COc1cc(-c2nc3cnccc3n2C)cc(OC)c1OC,"12.6 µM [rising, partial curve]"
3,O=C(O)c1cccnc1SC1CC(=O)N(Cc2ccccc2)C1=O (stereo not drawn),"0.00398 µM [falling, full curve, poor fit]"
4,C[C@](Cc1ccc(O)c(O)c1)(NN)C(=O)O,"12.6 µM [falling, single point]"
5,O=C(CSc1nc2ncccc2[nH]1)NCc1ccccc1,"0.316 µM [rising, partial curve, poor fit]"
6,CCOc1ccc(S(=O)(=O)n2c(C)nc3ccccc32)cc1,"3.16 µM [rising, single point]"
7,O=C(CCN1C(=O)C2C3C=CC(C3)C2C1=O)Nc1c(F)cc(F)cc1Br (stereo not drawn),"0.316 µM [falling, full curve]"
8,Cc1cc(Nc2nc3c(c(=O)n(C)c(=O)n3C)n2C)n(-c2ccc(Cl)cc2)n1,"12.6 µM [rising, single point]"
9,COc1ccc(N2Cc3cccc(C(=O)N4CCOCC4)c3C2=O)cc1,"0.00398 µM [falling, full curve, poor fit]"
10,O=C(CSc1nc2c(cnn2-c2ccc(F)cc2)c(=O)[nH]1)N1CCCCC1,"10 µM [rising, partial curve]"
11,CCOC(=O)N1CCC(NC(=O)Cn2cccc2C(=O)c2ccccc2)CC1,"0.631 µM [falling, partial curve]"
12,COc1ccc(-c2nnn(CCc3nn[nH]n3)n2)cc1OC,"12.6 µM [falling, single point]"
13,CC(C)OC(=O)CC(=O)CSc1nc2c(cc1C#N)CCC2,"12.6 µM [rising, partial curve]"
14,O=C(NCCN1CCCC1=O)Nc1ccccc1,"1 µM [rising, partial curve]"
15,CCOC(=O)c1[nH]c(C)c(C(=O)Nc2cc(OC)ccc2OC)c1C,"10 µM [rising, partial curve]"
16,O=c1nc2c(-c3ccccc3F)n[nH]n2c2ccccc12,"0.0794 µM [rising, full curve]"
17,COCCn1cnc2c(c1=O)c1nc3ccccc3nc1n2/N=C/c1cccc(OC)c1OC,"15.8 µM [rising, partial curve]"
18,CC1(C)Cc2c(c(N3CCOCC3)nc3sc(C(=O)N4CCCCC4)c(N)c23)CO1,"3.98 µM [rising, partial curve]"
19,CC1CCc2cccc3c2N1c1cc(C#N)c(C#N)cc1O3 (stereo not drawn),"10 µM [rising, partial curve]"
20,CN(C)C(=O)c1nc(C#N)c(N(C)C)o1,"0.126 µM [falling, single point]"
21,N#CCCn1c(=O)cnc2cnc(OCc3ccccc3)nc21,"12.6 µM [rising, partial curve]"
22,CCCc1ccc(OCc2ccc(C(=O)N3CCN(c4ccccn4)CC3)o2)c(OC)c1,"25.1 µM [falling, single point]"
23,Cc1nc(NC2CCCCC2)c2nc(-c3ccccc3)n(CCCN3CCOCC3)c2n1,"10 µM [rising, partial curve]"

# Reformatted bar-delimited: two of the compounds above
row | SMILES | AC50
5 | O=C(CSc1nc2ncccc2[nH]1)NCc1ccccc1 | 0.316 µM [rising, partial curve, poor fit]
6 | CCOc1ccc(S(=O)(=O)n2c(C)nc3ccccc32)cc1 | 3.16 µM [rising, single point]

# The list goes on.

row,SMILES,AC50
1,Cc1cc(C(F)F)n2ncc(C(=O)NCc3ccccc3)c2n1,"12.6 µM [rising, partial curve]"
2,CCCn1c(NC(=O)c2ccc(Cl)c(S(=O)(=O)N3CCCC3)c2)nc2ccccc21,"0.398 µM [falling, partial curve]"
3,C=C(C)Cn1c(CCNC(=O)C(C)(C)C)nc2ccccc21,"0.0126 µM [falling, full curve, poor fit]"
4,Cc1ccc(S(=O)(=O)c2cc3c(=O)n4ccccc4nc3n(Cc3ccco3)c2=N)cc1C,"10 µM [rising, partial curve]"
5,CCCc1nc(N)c(C#N)c(N)c1C#N,"12.6 µM [rising, partial curve]"
6,COc1cc(C2C(C#N)=C(N)Oc3c2oc(CO)cc3=O)ccc1OC(C)C (stereo not drawn),"0.251 µM [rising, full curve, poor fit]"
7,Cc1ccc2c(c1)-c1c(cnn1CC(=O)N1CCCN(Cc3ccccc3F)C1)CO2,"10 µM [falling, single point]"
8,COc1cccc(-c2nc(C(N)=O)c3[nH]c(=O)n(-c4ccccc4)c3n2)c1OC,"10 µM [rising, partial curve]"
9,Cc1cccc(NC(=O)c2oc3ccc(S(=O)(=O)N4CCOCC4)cc3c2C)c1C,"3.16 µM [falling, partial curve]"
10,O=C(c1ccncc1)N1CCC2(CCCN(c3ccc(-c4ccccc4)cc3)C2)CC1,"25.1 µM [rising, single point]"
11,CCCCNS(=O)(=O)c1ccc2nc(SCC(=O)Nc3sccc3C#N)[nH]c2c1,"25.1 µM [falling, single point]"
12,O=P(O)(CCCP(=O)(O)CCc1ccccc1)CCc1ccccc1,"6.31 µM [falling, full curve, poor fit]"
13,Cc1ccc(OCC(O)CN2CCN(CC(O)COc3ccc(C)cc3Cl)CC2)c(Cl)c1 (stereo not drawn),"0.631 µM [falling, full curve, poor fit]"
14,COc1ccc(CNc2nc(-c3cccc(C#N)c3)nc3ccccc23)c(OC)c1,"1.26 µM [rising, full curve]"
15,O=C1c2ccccc2C(=O)N1CCCc1nc2ccccc2c(=O)n1-c1cccnc1,"10 µM [rising, partial curve]"
16,O=c1c(-c2cccs2)nc2cnc(N3CCNCC3)nc2n1C1CC1,"7.94 µM [rising, partial curve]"
17,c1ccc2c(c1)ncn2Cc1nnc2sc(-c3ccc4c(c3)OCO4)nn12,"12.6 µM [rising, single point]"
18,CCCn1nc(NC(=O)c2cccs2)c2cc3cc(OC)ccc3nc21,"10 µM [rising, partial curve]"
19,CC12CCC(C(=O)Nc3ccc4c(c3)OCCO4)(OC1=O)C2(C)C (stereo not drawn),"1.58 µM [rising, partial curve]"
20,O=C(OCC(=O)N1c2ccccc2Sc2ccccc21)C1CC(=O)N(Cc2ccco2)C1 (stereo not drawn),"25.1 µM [falling, single point]"
21,COC(=O)c1ccccc1NC(=O)c1ccccc1SC,"10 µM [rising, partial curve]"
22,O=c1cc(C23CC4CC(CC(C4)C2)C3)[nH][nH]1,"0.501 µM [rising, single point]"
23,COc1cc2c(cc1OC)C(c1cc3cc(OC)c(OC)cc3[nH]c1=O)N(C(=O)C1CC1)CC2 (stereo not drawn),"10 µM [rising, partial curve]"

row,SMILES,AC50
1,COc1ccc(OC)c(C2C(C(=O)c3cc4ccccc4o3)=C(O)C(=O)N2c2cc(C)on2)c1 (stereo not drawn),"10 µM [rising, single point]"
2,CCCn1c(=NC(=O)c2ccncc2)c(C#N)cc2c(=O)n3cccc(C)c3nc21,"1 µM [rising, full curve]"
3,O=C(CCS(=O)(=O)c1ccc(Br)s1)NCc1cccs1,"0.398 µM [falling, partial curve]"
4,O=P(O)(O)c1ccccc1OCCCCCOc1ccccc1P(=O)(O)O,"0.126 µM [falling, full curve]"
5,Cc1csc(NC(=O)CSc2nc3ccccc3c(=O)[nH]2)n1,"25.1 µM [rising, single point]"
6,O=C(Nc1ccc(N2CCCC2)cc1)c1cccc(F)c1,"0.126 µM [rising, full curve, poor fit]"
7,COc1cc2c(cc1OC)C1=C(C#N)CC/C(=N\S(=O)(=O)c3ccccc3)N1CC2,"0.316 µM [rising, full curve]"
8,CC(=O)Nc1ccc(NC(=O)Cn2cc3c(n2)CCCC3)cc1,"0.0251 µM [falling, full curve]"
9,CCN1CCc2c(sc3c2c(NCc2ccco2)nc2nnnn23)C1,"12.6 µM [rising, single point]"
10,CC(C)Oc1ccc(C(=O)Nc2ccc(N(C)C)cc2)cc1,"0.794 µM [rising, partial curve]"
11,CCNc1sc(C(=O)c2cccs2)c(N)c1-c1nc2ccccc2s1,"0.2 µM [falling, full curve]"
12,COc1cc2ccc(=O)oc2c(O)c1O,"12.6 µM [rising, partial curve]"
13,O=C1CCCN1CCCNc1ncnc2c1[nH]c1ccc(Cl)cc12,"1.26 µM [rising, full curve]"
14,CCOC(=O)/C=C1\SCC(=O)N1CC(=O)c1ccc[nH]1,"5.01 µM [falling, single point]"
15,COc1cc2c(cc1OC)C(COc1ccc3c(C)cc(=O)oc3c1)N(C(=O)c1ccco1)CC2 (stereo not drawn),"0.794 µM [rising, full curve]"
16,O=C(Nc1ccccc1Cl)N1CCN(c2ccccn2)CC1,"0.00398 µM [falling, full curve]"
17,COc1cc(C2C(C(=O)OC(C)C)=C(C)Nc3ncnn32)cc(OC)c1OC (stereo not drawn),"12.6 µM [rising, partial curve]"
18,O=C1c2cccc3cccc(c23)N1CN1CCN(c2ccccn2)CC1,"25.1 µM [rising, single point]"
19,CC(C)(O)C#CC#CCN1CCOCC1,"25.1 µM [falling, single point]"
20,Cc1ccccc1-c1nc(N(C)C)c2ccccc2n1,"5.01 µM [rising, full curve]"
21,NC(=O)c1c(NC(=O)CSc2nnc(-c3ccccc3)n2CC2CCCO2)sc2c1CCC2 (stereo not drawn),"5.01 µM [falling, single point]"
22,CC1(C)Cc2c(c(-c3ccccc3)[nH]c(=O)c2C#N)CO1,"15.8 µM [rising, partial curve]"

# 2 of these compounds in another layout:
row	SMILES	AC50
15	COc1cc2c(cc1OC)C(COc1ccc3c(C)cc(=O)oc3c1)N(C(=O)c1ccco1)CC2 (stereo not drawn)	0.794 µM [rising, full curve]
22	CC1(C)Cc2c(c(-c3ccccc3)[nH]c(=O)c2C#N)CO1	15.8 µM [rising, partial curve]
